# Results: PubChem BioAssay AID493014 (National Center for Advancing Translational Sciences (NCATS), 2011)
# The list shows a part of the results. Shown are side measurements of this screen, not its main read-out; they come without a call. Compounds called inactive in the main read-out are mostly missing here. Words in brackets tell the shape of the fitted curve; partial curves, single points and poor fits give uncertain potencies.
# Assay: qHTS Assay to Find Inhibitors of Chronic Active B-Cell Receptor Signaling
# Conditions: ABC-DLBCL IkBa-CBG/CBR reporter, luminescence ratio (green luciferase fused to IkBa over red control in TMD8 lymphoma cells), 4 h
# In short: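 Doxycycline induced both beetle luciferases in TMD8 lymphoma cells; IKK-driven degradation limits the IkappaBalpha-fused green signal, while red luminescence normalises for cell number and nonspecific effects. Compounds tested up to 46 uM, 4 hrs.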
# [1] = measured here: CBR red luminescence, cell number
# [2] = measured here: IkBa-CBG green luminescence
smiles,measurement,setting,value
CC1CC(C)CN(C(=O)CNC(=O)c2ccc3ccccc3c2)C1 (centres undefined),AC50,[1],"2.82 µM [rising, full curve]"
O=C(NCc1ccccc1Cl)C(=O)NCC1OCCN1S(=O)(=O)c1ccc(F)cc1 (centres undefined),AC50,[1],"4.47 µM [falling, partial curve, poor fit]"
COc1ccc(CNc2nc(NCc3ccc(OC)cc3)n(C(=O)c3ccccc3[N+](=O)[O-])n2)cc1,AC50,[1],"31.6 µM [rising, single point]"
COc1cccc(/C=N/NC(=S)NCc2ccco2)c1OC,AC50,[1],"12.6 µM [falling, partial curve, poor fit]"
COC(=O)c1ccc(COC(=O)c2c(C)nn(Cc3ccccc3Cl)c2Cl)o1,AC50,[1],"29.1 µM [falling, single point]"
CCC(CO)Oc1cc(NC(=O)Cc2ccccc2)c2ncn(C(C)C)c2c1 (centres undefined),AC50,[1],"6.51 µM [rising, single point]"
Cc1cccnc1NC(=O)c1ccc(NS(=O)(=O)/C=C/c2ccccc2)cc1,AC50,[1],"29.1 µM [falling, single point]"
Nc1ncnc2c1ncn2[C@@H]1O[C@H](COP(=O)(O)O)[C@@H](O)[C@H]1O,AC50,[1],"14.1 µM [rising, partial curve]"
same,AC50,[2],"20 µM [falling, partial curve]"
C=CCn1c(SCc2nnc(-c3ccccc3)o2)nnc1C(O)c1ccccc1 (centres undefined),AC50,[1],"11.6 µM [rising, partial curve, poor fit]"
Cc1ccc(NC(=O)CCN2C(=O)c3ccccc3C2=O)cc1C,AC50,[1],"2.51 µM [rising, partial curve, poor fit]"
CN(C)CCN(C(=O)c1ccc(S(=O)(=O)N(C)C)cc1)c1nc2cc3c(cc2s1)OCCO3,AC50,[1],"15.8 µM [falling, single point]"
Cc1ccc(C(=O)Nc2nnc(S(=O)(=O)Nc3ccccc3C)s2)cc1C,AC50,[1],"11.2 µM [falling, single point]"
O=C(NNC(=O)c1cccc(-n2cnnn2)c1)c1ccccc1,AC50,[1],"25.1 µM [falling, single point]"
COc1ccccc1-c1coc2cc(O)cc(O)c2c1=O,AC50,[1],"0.82 µM [rising, full curve, poor fit]"
CCOC(=O)c1c2ccc(OCC(=O)N/N=C/c3ccc(C)cc3)cc2n2ccccc12,AC50,[1],"11.2 µM [rising, partial curve, poor fit]"
CC(C)[C@H](NC(N)=O)C(=O)Nc1ccc(F)c(Cl)c1,AC50,[1],"35.5 µM [rising, single point]"
O=C(c1cc(-c2cccs2)on1)N1CCN(c2ccccc2)CC1,AC50,[1],"12.6 µM [falling, partial curve, poor fit]"
CC(C)COc1cccc(C(=O)Nc2ccc(CN3CCOCC3)cc2)c1,AC50,[1],"12.6 µM [falling, partial curve]"
CCCCNC(=S)NNC(=O)c1c(Cl)c(C)nn1C,AC50,[1],"23.1 µM [rising, single point]"
O=C(Nc1cccc2ccccc12)c1ccc(OC(=S)N2CCOCC2)cc1,AC50,[1],"0.447 µM [falling, full curve]"
O=C(/C=C/c1ccc2c(c1)OCCO2)c1ccc(O)cc1,AC50,[1],"12.6 µM [falling, partial curve]"
COc1ccc(CN(Cc2cccnc2)C(=S)NCCc2ccccc2)cc1OC,AC50,[1],"11.2 µM [falling, partial curve]"
CN(C)CCCN(Cc1cc2cc3c(cc2[nH]c1=O)OCO3)C(=S)NCc1ccco1,AC50,[1],"7.94 µM [falling, partial curve, poor fit]"
Cc1cccc(Oc2ccc(N)cc2)c1,AC50,[1],"6.51 µM [falling, single point]"
Cc1ccsc1/C=N/Nc1ncnc2nc[nH]c12,AC50,[1],"6.31 µM [falling, full curve]"
Cc1cccc(NC(=O)c2ccoc2C)n1,AC50,[1],"6.51 µM [rising, partial curve, poor fit]"
COc1ccc(Nc2ccc(Cl)cc2)c(C(=O)O)c1,AC50,[1],"18.4 µM [falling, single point]"
Cc1nnc(NC(=O)c2cc3ccccc3o2)s1,AC50,[1],"6.31 µM [falling, partial curve, poor fit]"
O=C(Nc1ccccc1)Nc1cccc2ccccc12,AC50,[1],"0.355 µM [falling, full curve, poor fit]"
C[N+]12CCC(CC1)C(OC(=O)C(O)(c1ccccc1)c1ccccc1)C2 (centres undefined),AC50,[1],"3.98 µM [falling, single point]"
O=C(NCCC1=CCCCC1)NC12CC3CC(CC(C3)C1)C2,AC50,[1],"29.1 µM [rising, single point]"
COC(=O)C1=C(C(=O)c2ccccc2)C(c2ccc(O)c(OC)c2)n2nnnc2N1 (centres undefined),AC50,[1],"0.82 µM [rising, full curve, poor fit]"
N#Cc1nc(-c2ccco2)oc1NCCc1ccccc1,AC50,[1],"6.51 µM [rising, full curve]"
O=C(NCc1ccccc1F)Nc1ccc([N+](=O)[O-])cc1,AC50,[1],"10 µM [falling, partial curve]"
COc1ccc(C(=O)NCCCN2CCOCC2)cc1S(=O)(=O)N1CCCc2ccccc21,AC50,[1],"35.5 µM [rising, single point]"
COc1ccc(-c2cc(-c3cc(OC)ccc3O)[nH]n2)cc1,AC50,[1],"8.2 µM [falling, partial curve, poor fit]"
c1cncc(C2Nc3ccccc3-c3nc4ccccc4n32)c1 (centres undefined),AC50,[1],"3.66 µM [falling, partial curve, poor fit]"
COC(=O)NNC(=S)Nc1cc(OC)ccc1OC,AC50,[1],"6.51 µM [falling, single point]"
CC(=O)c1c(C)[nH]c(C(=O)OCC(=O)Nc2cc(S(=O)(=O)N3CCCCC3)ccc2C)c1C,AC50,[1],"20.6 µM [falling, single point]"
Fc1ccccc1C1c2cccn2CCN1C(=S)Nc1cccc(Br)c1 (centres undefined),AC50,[1],"22.4 µM [falling, single point]"
COc1cccc(CNCc2ccc(OC)c3ccccc23)c1OC,AC50,[1],"35.5 µM [falling, single point]"
NC(=O)C1CCN(C2=C(Cl)C(=O)c3ccccc3C2=O)CC1,AC50,[1],"12.6 µM [falling, partial curve, poor fit]"
same,AC50,[2],"15.8 µM [rising, partial curve, poor fit]"

# Another view of part of the listing above.
smiles	measurement	setting	value
O=C(NCc1ccccc1Cl)C(=O)NCC1OCCN1S(=O)(=O)c1ccc(F)cc1 (centres undefined)	AC50	[1]	4.47 µM [falling, partial curve, poor fit]
CCC(CO)Oc1cc(NC(=O)Cc2ccccc2)c2ncn(C(C)C)c2c1 (centres undefined)	AC50	[1]	6.51 µM [rising, single point]
Nc1ncnc2c1ncn2[C@@H]1O[C@H](COP(=O)(O)O)[C@@H](O)[C@H]1O	AC50	[2]	20 µM [falling, partial curve]
C=CCn1c(SCc2nnc(-c3ccccc3)o2)nnc1C(O)c1ccccc1 (centres undefined)	AC50	[1]	11.6 µM [rising, partial curve, poor fit]
O=C(NNC(=O)c1cccc(-n2cnnn2)c1)c1ccccc1	AC50	[1]	25.1 µM [falling, single point]
O=C(c1cc(-c2cccs2)on1)N1CCN(c2ccccc2)CC1	AC50	[1]	12.6 µM [falling, partial curve, poor fit]
O=C(Nc1cccc2ccccc12)c1ccc(OC(=S)N2CCOCC2)cc1	AC50	[1]	0.447 µM [falling, full curve]
O=C(Nc1ccccc1)Nc1cccc2ccccc12	AC50	[1]	0.355 µM [falling, full curve, poor fit]
O=C(NCCC1=CCCCC1)NC12CC3CC(CC(C3)C1)C2	AC50	[1]	29.1 µM [rising, single point]
N#Cc1nc(-c2ccco2)oc1NCCc1ccccc1	AC50	[1]	6.51 µM [rising, full curve]
COc1ccc(-c2cc(-c3cc(OC)ccc3O)[nH]n2)cc1	AC50	[1]	8.2 µM [falling, partial curve, poor fit]
c1cncc(C2Nc3ccccc3-c3nc4ccccc4n32)c1 (centres undefined)	AC50	[1]	3.66 µM [falling, partial curve, poor fit]
